Source: publication doi:10.1101/390104
No constants are given. Whether binding was seen depends on the method and setting.

Protein sequences, listed by entry. Tags and fused reporters are not part of them. Lines headed by an entry give the natural chain unless they say otherwise; changes in a name come on top.
UniProt P0AES9, whole entry, looked up, stated change not applied: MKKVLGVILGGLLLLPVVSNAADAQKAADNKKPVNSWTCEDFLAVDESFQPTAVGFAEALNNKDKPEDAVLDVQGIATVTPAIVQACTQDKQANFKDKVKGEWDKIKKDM

Legend:
[1] = target: HdeA-F28W mutant (E. coli) (UniProt P0AES9); assay: NMR
[2] = target: HdeA-F28W mutant (E. coli) (UniProt P0AES9); assay: SEC

In the case of “HdeA-F28W mutant (from UniProt P0AES9 22-110)”, the binding [1] is reported as “no binding” and the binding [2] is reported as “no binding”.
